Test results as given in article PMC11101658.
Results are given in words; binding and its absence hold for the method and conditions named. Binding seen in cells or lysates may run through a third protein. Some binding calls cover weakened binding; strength is not graded here. Where a sequence is shown, tags or fusion partners need not be part of it.

Sequences of proteins named here, by UniProt entry; tags and fusion partners are left off.
UniProt P49407: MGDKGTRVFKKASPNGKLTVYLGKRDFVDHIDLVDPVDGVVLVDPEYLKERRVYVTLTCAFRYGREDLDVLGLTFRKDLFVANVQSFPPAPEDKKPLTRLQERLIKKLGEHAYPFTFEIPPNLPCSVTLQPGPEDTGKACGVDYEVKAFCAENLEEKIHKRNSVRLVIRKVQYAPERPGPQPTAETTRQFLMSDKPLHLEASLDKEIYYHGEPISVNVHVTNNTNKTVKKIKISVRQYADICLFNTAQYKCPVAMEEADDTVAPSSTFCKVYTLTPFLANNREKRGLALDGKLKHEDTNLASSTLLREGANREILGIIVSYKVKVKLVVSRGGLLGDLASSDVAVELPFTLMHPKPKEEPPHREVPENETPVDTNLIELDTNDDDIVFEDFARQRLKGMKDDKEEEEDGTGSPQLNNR

Target: T1, GPR120 engineered to fuse with Renilla luciferase (RLuc8) at the C-terminus (mouse) (UniProt Q7TMA4)
T1 sequence: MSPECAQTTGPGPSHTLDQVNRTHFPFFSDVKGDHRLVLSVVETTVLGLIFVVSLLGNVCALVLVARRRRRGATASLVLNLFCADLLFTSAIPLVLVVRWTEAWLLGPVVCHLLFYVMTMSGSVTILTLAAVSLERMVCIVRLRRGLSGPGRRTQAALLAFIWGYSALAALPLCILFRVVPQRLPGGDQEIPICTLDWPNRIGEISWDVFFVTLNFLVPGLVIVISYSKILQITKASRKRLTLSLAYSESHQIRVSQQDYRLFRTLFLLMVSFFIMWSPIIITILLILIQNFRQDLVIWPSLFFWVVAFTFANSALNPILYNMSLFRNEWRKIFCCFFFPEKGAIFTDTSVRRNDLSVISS
Assay: FRET or BRET; living HEK-293T cells transfected with a 1:5 DNA ratio of GPR120-RLuc8 and mVenus-β-arrestin 1; 5 μM coelenterazine h; fatty acids (THA, EPA) at different concentrations for 5 min in 1x HBSS, 20 mM HEPES pH 7.4, 0.3% BSA; room temperature; BRET ratio for β-arrestin 1 recruitment

binding: binds
Substance: β-arrestin 1 ligated to mVenus at the N-terminus (from UniProt P49407 1-418)
